Results are given in words; binding and its absence hold for the method and conditions named. Binding can be weak; no strength is given.
Target: pol κ76
Experiment: yeast two-hybrid

B1: I-20 (other)
chain: RDEVIGILKAEKMDLALLEAQYGFVTPKKVLEALQRDAFQAKSTPWQEDIYEKPMNELDKVVEKHKESYRRILGQLLVAEKSRRQTILELEEEKRKHKEYMEKSDEFICLLEQECERLKKLIDQEIKSQEEKEQEKEKRVTTLKEELTKLKSFALMVVDEQQRLTAQLTLQRQKIQELTTNAKETHTKLALAEARVQEEEQKATRLEKELQTQTTKFHQDQDTIMAKLTNEDSQNRQLQQKLAALSRQIDELEETNRSLRKAEEE
notes: Tested as GAL4 domain fusion in yeast two-hybrid and three-hybrid; fusion parts are not written as pieces; also called 265 residue polypeptide I-20
  binding: binds
